Where a chain is given by its changes, count along the chain named. These are yes or no findings as the source states them, for the method shown. Some results given as binding are weak or reduced against the parent protein; the word gives no strength.
B1: Ab1 (antibody, human IgG1, V domains shown)
VH: EVQLVQSGAEVKKPGATVKISCKVSGYTFITYWISWVQQAPGKGLEWMGAIDPSDSDARYSPSFQGRVTITADTSTDTAYMELSSLRSEDTAVYYCAKSDPGYSGYSLLYGFDSWGQGTLVTVSS
VL: DIVMTQTPLSSPVTLGQPASISCRSSQSLVQRNGNTYLSWLQQRPGQPPRLLIYQVSNRYSGVPDRFSGSGAGTDFTLKISRVEAEDVGVYYCGQGAHLPLTFGQGTKVEIK
notes: Lead antibody; also called Abl
B2: Ab7 (antibody, human IgG1, V domains shown)
VH: B1 VH
VL: B1 VL with T7S, S11L, L41F, P48S, A72S
B3: Ab19 (antibody, human IgG1, V domains shown)
VH: B1 VH with T28S
VL: B1 VL with T7S, S11L, L41Y, A72S
B4: Ab9 (antibody, human IgG1, V domains shown)
VH: B1 VH
VL: B1 VL with T7S, S11L, L41Y, A72S
B5: Ab5 (antibody, human IgG1, V domains shown)
VH: B1 VH
VL: B1 VL with I2V, T7S, S11L, L41Y, A72S
B6: Ab15 (antibody, human IgG1, V domains shown)
VH: B1 VH with T28S
VL: B1 VL with I2V, T7S, S11L, L41Y, A72S
B7: Ab11 (antibody, human IgG1, V domains shown)
VH: B1 VH with T28S
VL: B1 VL
B8: Ab18 (antibody, human IgG1, V domains shown)
VH: B1 VH with T28S
VL: B1 VL with T7S, S11L, L41Y, P48S, A72S
B9: Ab12 (antibody, human IgG1, V domains shown)
VH: B1 VH with T28S
VL: B1 VL with L41Y
B10: Ab2 (antibody, human IgG1, V domains shown)
VH: B1 VH
VL: B1 VL with L41Y
B11: Ab10 (antibody, human IgG1, V domains shown)
VH: B1 VH
VL: B1 VL with T7S, S11L, L41F, A72S
B12: Ab8 (antibody, human IgG1, V domains shown)
VH: B1 VH
VL: B1 VL with T7S, S11L, L41Y, P48S, A72S
B13: Ab21 (antibody, human IgG1, V domains shown)
VH: B1 VH with T28S, T74K
VL: B1 VL
B14: Ab17 (antibody, human IgG1, V domains shown)
VH: B1 VH with T28S
VL: B1 VL with T7S, S11L, L41F, P48S, A72S
B15: Ab13 (antibody, human IgG1, V domains shown)
VH: B1 VH with T28S
VL: B1 VL with I2V, T7S, S11L, L41F, P48S, A72S
B16: Ab14 (antibody, human IgG1, V domains shown)
VH: B1 VH with T28S
VL: B1 VL with I2V, T7S, S11L, L41Y, P48S, A72S
B17: Ab20 (antibody, human IgG1, V domains shown)
VH: B1 VH with T28S
VL: B1 VL with T7S, S11L, L41F, A72S
B18: Ab3 (antibody, human IgG1, V domains shown)
VH: B1 VH
VL: B1 VL with I2V, T7S, S11L, L41F, P48S, A72S

By UniProt entry, the sequences of proteins in these tests, tags left out. Where a name states a change or a piece, a line headed by the entry shows the natural chain unless it says otherwise.
UniProt P01138: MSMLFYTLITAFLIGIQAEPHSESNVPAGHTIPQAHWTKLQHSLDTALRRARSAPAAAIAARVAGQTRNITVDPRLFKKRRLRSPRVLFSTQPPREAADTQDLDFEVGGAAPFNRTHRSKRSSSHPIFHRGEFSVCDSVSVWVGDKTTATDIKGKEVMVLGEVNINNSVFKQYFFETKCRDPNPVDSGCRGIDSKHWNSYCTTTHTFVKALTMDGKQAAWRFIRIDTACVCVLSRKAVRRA

Target: recombinantly produced human-NGF (human, UniProt P01138 122-241, limits assumed)
Assay: NGF binding ELISA

binding | Binder
binds | B1
binds | B2
binds | B3
binds | B4
binds | B5
binds | B6
binds | B7
binds | B8
binds | B9
binds | B10
binds | B11
binds | B12
binds | B13
binds | B14
binds | B15
binds | B16
binds | B17
binds | B18

Source: patent US20230220057A1 (STAIDSON BEIJING BIOPHARMACEUTICALS, published 2023)
